# Reference: PMC11965332
# By UniProt entry, the sequences of proteins in these tests, tags left out. Where a name states a change or a piece, a line headed by the entry shows the natural chain unless it says otherwise.
# UniProt O95155: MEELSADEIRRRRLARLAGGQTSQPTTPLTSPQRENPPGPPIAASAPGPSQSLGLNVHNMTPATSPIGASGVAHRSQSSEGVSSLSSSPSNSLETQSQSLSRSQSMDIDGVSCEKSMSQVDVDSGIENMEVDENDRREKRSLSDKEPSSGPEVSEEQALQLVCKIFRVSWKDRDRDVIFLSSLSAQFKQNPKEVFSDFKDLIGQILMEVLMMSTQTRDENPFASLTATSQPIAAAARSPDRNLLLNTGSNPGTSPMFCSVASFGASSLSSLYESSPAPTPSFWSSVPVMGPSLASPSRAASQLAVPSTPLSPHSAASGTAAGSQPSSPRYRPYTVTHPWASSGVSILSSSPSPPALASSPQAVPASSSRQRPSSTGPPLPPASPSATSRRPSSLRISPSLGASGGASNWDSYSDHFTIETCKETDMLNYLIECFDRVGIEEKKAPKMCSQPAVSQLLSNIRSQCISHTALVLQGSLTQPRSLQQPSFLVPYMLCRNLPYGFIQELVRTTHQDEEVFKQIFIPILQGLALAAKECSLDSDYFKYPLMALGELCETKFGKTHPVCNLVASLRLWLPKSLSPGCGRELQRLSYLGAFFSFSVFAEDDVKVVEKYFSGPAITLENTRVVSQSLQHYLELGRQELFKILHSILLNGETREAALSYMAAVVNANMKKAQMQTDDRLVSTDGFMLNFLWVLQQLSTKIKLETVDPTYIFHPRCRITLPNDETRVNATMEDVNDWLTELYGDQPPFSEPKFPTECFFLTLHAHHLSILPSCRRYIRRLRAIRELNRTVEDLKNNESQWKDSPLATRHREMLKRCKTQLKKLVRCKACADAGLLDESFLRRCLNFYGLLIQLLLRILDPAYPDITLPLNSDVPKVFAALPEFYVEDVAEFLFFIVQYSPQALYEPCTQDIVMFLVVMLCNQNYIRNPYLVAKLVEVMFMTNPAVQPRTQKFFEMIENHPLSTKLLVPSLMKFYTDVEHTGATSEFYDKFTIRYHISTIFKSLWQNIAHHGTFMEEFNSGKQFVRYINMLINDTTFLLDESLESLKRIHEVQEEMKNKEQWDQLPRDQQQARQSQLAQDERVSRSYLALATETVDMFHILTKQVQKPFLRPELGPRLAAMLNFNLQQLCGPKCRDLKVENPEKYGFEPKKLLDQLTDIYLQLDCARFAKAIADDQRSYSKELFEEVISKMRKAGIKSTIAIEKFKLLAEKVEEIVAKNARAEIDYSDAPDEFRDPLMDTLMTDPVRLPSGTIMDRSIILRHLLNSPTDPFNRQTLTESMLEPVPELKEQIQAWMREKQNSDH
# UniProt Q00987: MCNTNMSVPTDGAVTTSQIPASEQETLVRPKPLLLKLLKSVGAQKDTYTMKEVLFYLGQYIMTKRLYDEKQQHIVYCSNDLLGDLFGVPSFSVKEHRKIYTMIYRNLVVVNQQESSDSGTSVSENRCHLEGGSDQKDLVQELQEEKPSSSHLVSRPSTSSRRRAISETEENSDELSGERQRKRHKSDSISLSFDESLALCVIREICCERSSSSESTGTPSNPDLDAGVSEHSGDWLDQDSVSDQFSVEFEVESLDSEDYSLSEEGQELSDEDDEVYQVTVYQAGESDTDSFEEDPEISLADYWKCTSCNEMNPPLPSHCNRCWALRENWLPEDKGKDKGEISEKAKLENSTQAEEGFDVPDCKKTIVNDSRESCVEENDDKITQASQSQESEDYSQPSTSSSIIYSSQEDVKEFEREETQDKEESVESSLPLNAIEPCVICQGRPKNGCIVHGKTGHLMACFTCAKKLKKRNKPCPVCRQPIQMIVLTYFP
# Key:
# [1] = biological target: Flag-tagged C500 construct of UBE4B (first 500 N-terminal amino acids) (UniProt O95155); experiment: co-IP; HCT116 cells transfected with HDM2, Flag-UBE4B, Flag-C500, Flag-C800; 10 J/m2 UV, 3 h; immunoprecipitated with anti-Flag (M5); Wip1 and HDM2 detected by immunoblotting
# [2] = biological target: Flag-tagged C800 construct of UBE4B (first 800 N-terminal amino acids) (UniProt O95155); experiment: as above
Molecule,binding [1],binding [2]
"HDM2, expressed from pCMV-BAM-HDM2 (from UniProt Q00987 1-491)",binds,binds
"Wild-type p53-induced phosphatase 1 (Wip1), endogenous (enzyme, UniProt O15297 1-605) MAGLYSLGVSVFSDQGGRKYMEDVTQIVVEPEPTAEEKPSPRRSLSQPLPPRPSPAALPGGEVSGKGPAVAAREARDPLPDAGASPAPSRCCRRRSSVAFFAVCDGHGGREAAQFAREHLWGFIKKQKGFTSSEPAKVCAAIRKGFLACHLAMWKKLAEWPKTMTGLPSTSGTTASVVIIRGMKMYVAHVGDSGVVLGIQDDPKDDFVRAVEVTQDHKPELPKERERIEGLGGSVMNKSGVNRVVWKRPRLTHNGPVRRSTVIDQIPFLAVARALGDLWSYDFFSGEFVVSPEPDTSVHTLDPQKHKYIILGSDGLWNMIPPQDAISMCQDQEEKKYLMGEHGQSCAKMLVNRALGRWRQRMLRADNTSAIVICISPEVDNQGNFTNEDELYLNLTDSPSYNSQETCVMTPSPCSTPPVKSLEEDPWPRVNSKDHIPALVRSNAFSENFLEVSAEIARENVQGVVIPSKDPEPLEENCAKALTLRIHDSLNNSLPIGLVPTNSTNTVMDQKNLKMSTPGQMKAQEIERTPPTNFKRTLEESNSGPLMKKHRRNGLSRSSGAQPASLPTTSQRKNSVKLTMRRRLRGQKKIGNPLLHQHRKTVCVC",no binding,binds

# No constants are given. Whether binding was seen depends on the method and setting. Binding seen in cells or lysates may run through a third protein. A result given as binding can be weak or reduced; the word gives no strength.
